Measured values reported in publication PMC3380016.
Results are given in words; binding and its absence hold for the method and conditions named. In cells and extracts the contact can be indirect. Some binding calls cover weakened binding; strength is not graded here.

Protein sequences, listed by entry. Tags and fused reporters are not part of them. Lines headed by an entry give the natural chain unless they say otherwise; changes in a name come on top. Chains listed by the source or under a name are the forms on record and can include a tag or linker. Residues count along the entry.
UniProt Q03135: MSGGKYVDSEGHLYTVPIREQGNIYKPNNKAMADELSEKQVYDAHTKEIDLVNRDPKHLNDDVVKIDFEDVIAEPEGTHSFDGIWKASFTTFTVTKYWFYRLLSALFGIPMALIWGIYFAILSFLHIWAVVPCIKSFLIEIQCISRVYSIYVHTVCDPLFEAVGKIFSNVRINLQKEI
GST fused to residues 82 to 101 of caveolin-1: residues 82-101 of Q03135
UniProt Q07812: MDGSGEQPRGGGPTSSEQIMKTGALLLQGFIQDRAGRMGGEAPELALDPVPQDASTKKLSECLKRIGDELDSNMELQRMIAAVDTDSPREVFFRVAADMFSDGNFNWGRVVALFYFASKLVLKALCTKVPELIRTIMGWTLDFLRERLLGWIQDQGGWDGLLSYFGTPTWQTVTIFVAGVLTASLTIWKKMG
UniProt P12956: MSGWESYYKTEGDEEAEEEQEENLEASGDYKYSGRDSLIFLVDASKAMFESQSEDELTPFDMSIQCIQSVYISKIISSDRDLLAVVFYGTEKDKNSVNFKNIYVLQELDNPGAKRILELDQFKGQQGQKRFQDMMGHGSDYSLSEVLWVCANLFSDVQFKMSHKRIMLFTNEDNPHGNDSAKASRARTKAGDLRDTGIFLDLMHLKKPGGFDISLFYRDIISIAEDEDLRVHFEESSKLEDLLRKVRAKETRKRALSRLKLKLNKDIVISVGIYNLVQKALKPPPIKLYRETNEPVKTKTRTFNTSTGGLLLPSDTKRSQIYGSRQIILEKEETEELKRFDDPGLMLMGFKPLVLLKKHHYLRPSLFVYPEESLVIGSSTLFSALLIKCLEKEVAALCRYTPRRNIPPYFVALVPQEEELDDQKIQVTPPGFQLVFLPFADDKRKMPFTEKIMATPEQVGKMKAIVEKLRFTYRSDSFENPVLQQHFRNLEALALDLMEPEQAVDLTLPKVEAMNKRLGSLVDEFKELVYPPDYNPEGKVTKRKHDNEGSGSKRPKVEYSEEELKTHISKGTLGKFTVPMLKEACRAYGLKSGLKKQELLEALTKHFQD
UniProt P23475: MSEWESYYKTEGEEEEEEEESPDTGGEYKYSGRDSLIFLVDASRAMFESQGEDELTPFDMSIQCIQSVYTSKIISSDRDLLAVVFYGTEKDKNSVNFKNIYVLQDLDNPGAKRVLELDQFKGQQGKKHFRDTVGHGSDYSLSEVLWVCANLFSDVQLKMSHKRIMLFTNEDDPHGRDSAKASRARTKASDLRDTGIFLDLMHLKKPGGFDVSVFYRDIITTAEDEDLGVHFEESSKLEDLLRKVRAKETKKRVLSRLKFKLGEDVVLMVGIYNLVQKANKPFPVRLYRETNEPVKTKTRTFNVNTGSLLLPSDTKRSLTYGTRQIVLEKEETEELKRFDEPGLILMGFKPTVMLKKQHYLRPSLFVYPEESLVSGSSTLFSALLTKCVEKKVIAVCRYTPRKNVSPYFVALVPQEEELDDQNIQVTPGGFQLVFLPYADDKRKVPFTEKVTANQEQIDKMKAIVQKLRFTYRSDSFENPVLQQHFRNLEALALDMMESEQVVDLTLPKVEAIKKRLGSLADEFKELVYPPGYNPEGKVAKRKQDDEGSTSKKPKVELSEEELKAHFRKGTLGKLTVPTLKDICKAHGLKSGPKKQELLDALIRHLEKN

Tests used:
[1] = biological target: caveolin-1 (human (endogenous in HCT116)) (UniProt Q03135); test: co-IP; HCT116 cells transfected with WT Ku70-HA or Φ→A Ku70-HA, untreated or treated with 5-FU for 24 h; immunoprecipitation with anti-caveolin-1, blots with anti-HA, anti-Bax and anti-caveolin-1
[2] = biological target: caveolin-1 (human (endogenous in HCT116)) (UniProt Q03135); test: co-IP; HCT116 cells treated with 5-FU or etoposide for 24 hours; lysis in 10 mM Tris pH 8.0, 150 mM NaCl, 5 mM EDTA, 1% Triton X-100, 60 mM octyl glucoside; immunoprecipitation with anti-caveolin-1, blots with anti-Ku70, anti-Bax and anti-caveolin-1
[3] = biological target: Bax (human (endogenous in HCT116)) (UniProt Q07812); test: co-IP; HCT116 cells (untransfected or transfected with scrambled or caveolin-1 siRNA), untreated or treated with 5-FU or etoposide for 24 hours; Bax immunoprecipitation in 0.1 mM Hepes and 1% CHAPS; blots with anti-Ku70, anti-caveolin-1 and anti-Bax
[4] = biological target: caveolin-1 (human (endogenous in HCT116)) (UniProt Q03135); test: co-IP; untreated (resting) HCT116 cells; immunoprecipitation with anti-caveolin-1, blot with anti-Ku70
[5] = biological target: Bax (human (endogenous in HCT116)) (UniProt Q07812); test: co-IP; HCT116 cells transfected with WT Ku70-HA or Φ→A Ku70-HA, untreated or treated with 5-FU for 24 h; immunoprecipitation with anti-Bax, blots with anti-HA and anti-Bax
[6] = biological target: GST fused to full-length caveolin-1 (UniProt Q03135); test: pull-down; GST-Cav-1 fusion proteins on glutathione-agarose beads; pre-cleared lysates of HCT116 cells over-expressing HA-Ku70 (wild type or Φ→A) diluted in buffer A (10 mM Tris pH 8.0, 0.1% Tween 20), overnight at 4°C; beads washed 6 times with PBS; only the target purified
[7] = biological target: GST fused to residues 82 to 101 of caveolin-1 (UniProt Q03135); test: as above

Row | binding [1] | binding [2] | binding [3] | binding [4] | binding [5] | binding [6] | binding [7] | Substance
1 | binds | binds | – | – | – | – | – | Bax (from UniProt Q07812 1-192)
2 | – | binds | binds | binds weakly | – | – | – | Ku70 (from UniProt P12956 1-609)
3 | – | – | binds | – | – | – | – | caveolin-1 (from UniProt Q03135 1-178)
4 | binds | – | – | – | binds | binds | binds | wild type Ku70-HA (from UniProt P23475 1-608)
